# Laboratory results taken from the supplement of paper PMC10373366.
# This is one part of the list. Repeats are few or missing, and single values can be far off.
# Tested on: A2780
# Test: cell growth inhibition ratio vs untreated control (CCK8); higher = stronger inhibition of cell viability
# Conditions: 10 µM; 48 h
# Protocol: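 Natural product library (Topscience) screened at 10 µM final concentration for 48 h on ovarian cancer A2780 cells and patient-derived ovarian cancer cells (PDC) in 96-well plates; viability read by CCK8 and reported as inhibition ratio (%) relative to untreated control. Single-dose primary screen.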
row,SMILES,cell growth inhibition ratio [%]
1,Cc1cc2nc3c(=O)[nH]c(=O)nc-3n(C[C@H](O)[C@H](O)[C@H](O)COP(=O)(O)O)c2cc1C [Flavin mononucleotide],1.53
2,CC1(C)OC(=O)C=C[C@]2(C)[C@H]3CC[C@@]4(C)[C@H](c5ccoc5)OC(=O)[C@H]5O[C@]54[C@]3(C)C(=O)C[C@@H]12 [Obacunone],-7.63
3,CC(C)CCCC(C)C1CCC2C3CCC4CC(O)CCC4(C)C3CCC12C (stereo unspecified) [Dihydrocholesterol],8.85
4,C[C@H]1[C@H](C)CC[C@]2(C(=O)O[C@@H]3O[C@H](CO[C@@H]4O[C@H](CO)[C@@H](O[C@@H]5O[C@H](C)[C@H](O)[C@@H](O)[C@H]5O)[C@H](O)[C@H]4O)[C@@H](O)[C@H](O)[C@H]3O)CC[C@]3(C)C(=CC[C@@H]4[C@@]5(C)C[C@@H](O)[C@H](O)[C@@](C)(CO)[C@@H]5CC[C@]43C)[C@H]12 [Asiaticoside],-7.4
5,Cc1cc(O)c([C@@H]2c3c(O)cc(O)cc3O[C@H](c3ccc(O)c(O)c3)[C@H]2O)c2c1C[C@@](C)(O)[C@@H](c1ccc(O)c(O)c1)O2 [Grape Seed Extract],68.6
6,CC1(C)[C@@H](O[C@H]2O[C@H](C(=O)O)[C@@H](O)[C@H](O)[C@H]2O[C@@H]2O[C@H](C(=O)O)[C@@H](O)[C@H](O)[C@H]2O)CC[C@]2(C)[C@H]3C(=O)C=C4[C@@H]5C[C@@](C)(C(=O)O)CC[C@]5(C)CC[C@@]4(C)[C@]3(C)CC[C@@H]12 [Monoammonium glycyrrhizinate],18.3
